This is one part of the list. Further columns of the screen follow, without active or inactive calls. The list favours compounds with an active or inconclusive main result. Potencies come from curve fits of mixed quality, noted in brackets.
Assay: qHTS Assay to Find Inhibitors of Chronic Active B-Cell Receptor Signaling
Conditions: ABC-DLBCL IkBa-CBG/CBR reporter, luminescence ratio (green luciferase fused to IkBa over red control in TMD8 lymphoma cells), 4 h
Procedure, shortened: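 TMD8 ABC-DLBCL cells carrying doxycycline-inducible green luciferase fused to IkappaBalpha plus unfused red luciferase were exposed to compounds (up to 46 uM) for 4 hrs at 37C. Activity came from the overlap-corrected green/red luminescence ratio.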

[1] = measured here: CBR red luminescence, cell number
[2] = measured here: IkBa-CBG green luminescence

COc1ccnc2c1c(=O)n(Cc1ccc(F)cc1)c(=O)n2C
AC50 [1]: 11.2 µM [falling, partial curve, poor fit]

COc1ccc(S(=O)(=O)N(CC(=O)NCc2cccnc2)Cc2ccccc2)cc1
AC50 [1]: 1.78 µM [rising, partial curve, poor fit]

Cc1sc(-n2c(C)cc(/C=C3\SC(=S)NC3=O)c2C)c(C#N)c1C
AC50 [1]: 20 µM [rising, partial curve, poor fit]

COc1ccc(-c2cc3nc(CCl)[nH]c(=O)c3s2)cc1
AC50 [1]: 10 µM [falling, partial curve]

COc1cccc(-n2c(SCC(=O)OC(C)C)nnc2-c2cccnc2)c1
AC50 [1]: 0.326 µM [falling, full curve]
AC50 [2]: 0.326 µM [rising, full curve, poor fit]

Cc1ccc(-n2cc(CNC(C)Cn3cncn3)c(-c3ccc(F)cc3)n2)cc1 (configuration not stated)
AC50 [1]: 8.91 µM [falling, partial curve]

CNC(C)C(=O)NC(C(=O)N1CCCC1C(=O)NNc1ccccc1)C(C)C (configuration not stated)
AC50 [1]: 11.6 µM [rising, partial curve, poor fit]

O=C(O)c1cccc(N/N=C/c2cccnc2)c1
AC50 [1]: 3.98 µM [falling, partial curve]

Cc1[nH]c2ccccc2c1C(=O)COC(=O)c1nccnc1N
AC50 [1]: 23.1 µM [falling, partial curve, poor fit]

Cc1ccc(S(=O)(=O)CCC(=O)N2CCN(c3ccc([N+](=O)[O-])cc3)CC2)cc1
AC50 [1]: 5.62 µM [falling, partial curve, poor fit]

COc1cc(C2C(C#N)=C(N)Oc3c2c(-c2ccccc2)nn3-c2ccccc2)cc(OC)c1OC (configuration not stated)
AC50 [1]: 29.1 µM [falling, single point]
AC50 [2]: 25.9 µM [rising, single point]

CN1CCC/C1=C1/C(=O)N(c2ccccc2)N=C1NC(=O)Nc1cccc(Cl)c1
AC50 [1]: 1.78 µM [falling, full curve]

Cc1ccc(-c2nc3ccccc3c(=O)n2-c2c(C)n(C)n(-c3ccccc3)c2=O)cc1
AC50 [1]: 6.31 µM [rising, single point]

N/C(=N\OC(=O)c1cnn(-c2ccccc2)c1C(F)(F)F)c1cc(C(F)(F)F)cc(C(F)(F)F)c1
AC50 [1]: 11.2 µM [rising, partial curve, poor fit]

Cc1ccc(/C(C#N)=C\c2cn(C)c3ccccc23)cc1
AC50 [1]: 0.92 µM [rising, full curve]

O=C(NCc1cccc(F)c1)c1cccc2c1C(=O)c1ccc(N3CCCC3)cc1S2(=O)=O
AC50 [1]: 29.1 µM [rising, partial curve, poor fit]

CCCCn1c(SCC(=O)N2CCN(c3ccccc3)CC2)nc2ccsc2c1=O
AC50 [1]: 20 µM [falling, single point]

O=C1CSC(=S)N1Cc1cccnc1
AC50 [1]: 18.4 µM [falling, partial curve]

COC(=O)c1[nH]c2c(c1C)C(=O)CC(c1ccccc1)C2 (configuration not stated)
AC50 [1]: 5.17 µM [rising, full curve]
AC50 [2]: 2.59 µM [falling, full curve]

Cc1cccc(-c2nn(-c3ccccc3)cc2C(=O)N(C)CC(=O)Nc2ccc(N3CCOCC3)cc2)c1
AC50 [1]: 7.31 µM [rising, partial curve, poor fit]

O=C(CNC(=O)c1cccs1)NCC(=O)OCc1c(Cl)cccc1Cl
AC50 [1]: 3.98 µM [rising, full curve, poor fit]

O=C(O)c1ccc(NS(=O)(=O)c2ccc3c(c2)C(=O)c2cc(S(=O)(=O)Nc4ccc(C(=O)O)cc4)ccc2-3)cc1
AC50 [1]: 35.5 µM [falling, single point]

O=C(NC(Cc1ccccc1)C(=O)O)c1ccco1 (configuration not stated)
AC50 [1]: 15.8 µM [rising, single point]

CCOC(=O)CSc1nc2c(sc3ccccc32)c(=O)n1Cc1ccc(OC)cc1
AC50 [1]: 35.5 µM [falling, single point]

Cc1ccc(CSCC(=O)Nc2ccccc2)cc1
AC50 [1]: 3.16 µM [rising, partial curve]

CCOc1cnc(-c2c(-c3c(F)cccc3Cl)noc2C)o1
AC50 [1]: 0.112 µM [rising, full curve, poor fit]

CCOC(=O)[C@H]1[C@H]2COc3cc(OC)ccc3[C@@H]2N2C(=O)c3cc(OC)ccc3NC(=O)[C@@]12C
AC50 [1]: 16.4 µM [falling, partial curve]
AC50 [2]: 20.6 µM [rising, partial curve, poor fit]

COc1ccc(OCc2cccc(C(=O)N3CCCC3)c2)cc1
AC50 [1]: 29.1 µM [falling, single point]

COc1ccc(OCCNC(=O)c2ccccc2OCC(=O)Nc2ccc(NC(C)=O)cc2)cc1
AC50 [1]: 29.1 µM [falling, single point]

Nc1c(C(=O)c2ccccc2)sc(Nc2ccc(Cl)c(Cl)c2)c1C(=O)Nc1ccccc1
AC50 [1]: 12.6 µM [falling, partial curve]

CC(C)NC(=O)c1c(O)c2ccccc2[nH]c1=O
AC50 [1]: 29.1 µM [falling, single point]

C=CCNC(=S)/N=c1/scc(C)n1C
AC50 [1]: 13 µM [rising, partial curve, poor fit]

Cc1c(CN2CCC(CO)(Cc3cccc(C(F)(F)F)c3)CC2)c2ccccc2n1C
AC50 [1]: 35.5 µM [falling, single point]

O=C(CNS(=O)(=O)c1cccc(Cl)c1)Nc1ccc(-c2nc3ccccc3s2)cc1
AC50 [1]: 5.8 µM [rising, partial curve]

O=C(Cc1cccs1)Nc1nnc(SCc2ccc(C(F)(F)F)cc2)s1
AC50 [1]: 29.1 µM [rising, partial curve, poor fit]

CNC(=O)CSc1cn(CC(=O)N(C(C)C)C(C)C)c2ccccc12
AC50 [1]: 14.1 µM [falling, partial curve, poor fit]

COc1cc(S(=O)(=O)N2CCN(c3ccccc3)CC2)ccc1F
AC50 [1]: 3.16 µM [falling, single point]

O=Nc1ccc(NOC(=O)c2ccccc2Br)cc1
AC50 [1]: 29.1 µM [falling, single point]

Source: PubChem BioAssay AID493014 (National Center for Advancing Translational Sciences (NCATS), 2011)
